PubChem BioAssay AID1508588 – Peter MacCallum Cancer Centre – 2020
Shown is an unselected part of about 18,000 deposited reagents. 790 of them (4.4%) were called active. 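Calls rest on a combination of fold-change classes in drug and vehicle arms, not all shown here.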

Assay: 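Which gene losses make BRAF-mutant melanoma cells more responsive to vemurafenib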 (primary screen)
Cells: human WM266.4 melanoma cells (BRAF V600 mutant)
Reagent: siRNA pool against human genes, 40 nM
Timing: 96 h from transfection to read-out
Treatment: vemurafenib 300 nM (about IC25), added 48 h after transfection, for 48 h; comparison arm got DMSO vehicle only
Detection: 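Ratios to non-targeting siRNA for cell gain, counted as DAPI nuclei after minus before drug and averaged over two replicates, and for absorbance-read medium lactate per cell; both binned into fold-change classes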
Reading the numbers: cell gain with vemurafenib: higher = more cell gain than with non-targeting siRNA; lactate per cell with vemurafenib: higher = more lactate made per cell
Rule for the call: 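Enhancement is called by pairing each knock-down's vehicle-arm and drug-arm fold-change classes for viability or glycolysis; which class combinations qualify is not given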
Calls: active = enhances vemurafenib effect; inactive = no enhancement seen

gene	cell gain with vemurafenib	lactate per cell with vemurafenib	Call
HSP90B1	0.06	2.24	inactive
OR7A10	0.95	0.26	inactive
ZDHHC6	0.35	1.24	inactive
TRIM52	0.94	0.88	inactive
IDE	0.75	0.54	inactive
UGT1A1	0.59	1.61	inactive
KDM2A	0.31	1.17	inactive
WNT9A	0.69	1.38	inactive
NOP58	0.39	1.16	inactive
FABP7	0.57	0.34	active
FAM3C	0.74	0.7	active
APOC4	0.62	1.58	inactive
STAT2	0.47	1.24	inactive
BTN3A2	0.64	0.77	inactive
TAL2	0.41	1.64	inactive
COQ7	0.68	1.43	inactive
MAD1L1	0.57	0.38	inactive
MED19	0.32	1.4	inactive
ROR2	0.96	0.42	inactive
MED31	0.53	1.56	inactive
OR9G9	0.95	0.74	inactive
NOM1	0.47	1.57	inactive

The list goes on (2 carried over from the part before).
gene	cell gain with vemurafenib	lactate per cell with vemurafenib	Call
OR9G9	0.95	0.74	inactive
NOM1	0.47	1.57	inactive
KLK1	1.18	0.98	inactive
BEST4	0.64	0.76	inactive
OR1D5	0.73	1.02	inactive
IGF2BP2-AS1	0.65	1.46	inactive
BIRC8	1.3	0.66	inactive
UGT1A9	0.07	0.76	inactive
DIMT1	0.65	1.01	inactive
TTLL1	0.47	1.19	inactive
MIA3	0.91	1.33	inactive
NUCLEOLIN	0	0.72	inactive
CAND1	1.07	1.21	inactive
H4C14	0.79	0.67	inactive
